Measurements taken from paper PMC9882653.
No constants are given. Whether binding was seen depends on the method and setting. In cells and extracts the contact can be indirect.

Amino acid sequences for entries named in this document (tags omitted). A change or cut given only in a name is not applied to a line headed by its entry.
UniProt Q9UM11: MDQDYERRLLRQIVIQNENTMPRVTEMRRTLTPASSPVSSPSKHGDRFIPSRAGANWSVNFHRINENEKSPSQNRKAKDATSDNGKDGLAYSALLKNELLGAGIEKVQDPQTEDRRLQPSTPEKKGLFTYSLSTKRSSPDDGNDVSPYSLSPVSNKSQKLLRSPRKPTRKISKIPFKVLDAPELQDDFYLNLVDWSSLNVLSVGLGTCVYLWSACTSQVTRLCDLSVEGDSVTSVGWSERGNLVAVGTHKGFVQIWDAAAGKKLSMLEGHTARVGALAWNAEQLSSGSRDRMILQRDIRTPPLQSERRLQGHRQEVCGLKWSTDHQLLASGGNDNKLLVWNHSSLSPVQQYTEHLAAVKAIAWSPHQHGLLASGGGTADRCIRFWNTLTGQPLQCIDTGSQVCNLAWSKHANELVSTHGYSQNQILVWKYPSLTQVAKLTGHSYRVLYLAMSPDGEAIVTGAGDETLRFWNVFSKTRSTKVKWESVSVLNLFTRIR
UniProt Q00534: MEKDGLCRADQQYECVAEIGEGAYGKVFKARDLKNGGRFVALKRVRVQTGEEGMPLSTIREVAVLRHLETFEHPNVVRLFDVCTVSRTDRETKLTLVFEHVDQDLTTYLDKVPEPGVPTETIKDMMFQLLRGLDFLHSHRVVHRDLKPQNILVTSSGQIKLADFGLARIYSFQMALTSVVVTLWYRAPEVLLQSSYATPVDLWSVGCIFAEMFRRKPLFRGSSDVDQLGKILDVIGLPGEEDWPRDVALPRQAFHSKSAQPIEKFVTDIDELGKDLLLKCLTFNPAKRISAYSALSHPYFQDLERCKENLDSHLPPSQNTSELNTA

Target: HA-CDH1 (wild type) (human) (UniProt Q9UM11)
Test: co-IP; 293T cells transfected with indicated constructs for 36 hrs

CDK6 (from UniProt Q00534 1-326) (enzyme)
binding: no binding
